{"source": "PubChem BioAssay AID504444", "about": "(National Center for Advancing Translational Sciences (NCATS), 2011)", "note": "“And” between values parts separate entries of the source, which are not always exact repeats. Equal values may be shown once. The whole screen tested about 360,000 compounds, of which about 7,500 (2.1%) were called active. Inconclusive results, whose numbers are uncertain, are shown with a selection of clear calls. Calls come from the whole dose curve; as a rule, active = well fitted inhibition curve with a large enough effect; inconclusive = small, poorly fitted or top-dose-only effect, or effect the other way; inactive = flat fitted curve, though single readings scatter. Where the call is inconclusive, the potency comes from a doubtful curve fit. % is set by controls: 0 for no effect and ±100 for the full control effect; potency is the fitted concentration of half-maximal effect."}
{"experiment": "Nrf2 qHTS screen for inhibitors; note: nearly all actives have a fitted effect of over 60% in size", "conditions": "A549 ARE-Fluc reporter, luciferase luminescence, 18-24 h; activity change, negative = inhibition: at 46 µM (top of the series)", "procedure,_shortened": "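Reporter: ARE-Fluc in A549. Exposure: 18-24 h, 37 °C, 5% CO2, 5% FBS OPTI-MEM. Readouts: fluorescent cytotoxicity (CellTiter-Fluor), then luminescent Nrf2 signal after BugLite.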"}
{"compound": "O=C(N/N=C/c1ccc(Cl)cc1Cl)c1n[nH]c2c1CCCC2", "Potency": "inconclusive: 3.66 µM [activator, full curve]"}
{"compound": "O=C1COc2ccc(NC(=O)N3CCN(c4ccc(F)cc4)CC3)cc2N1", "Potency": "inconclusive: 14.6 µM [falling, partial curve]"}
{"compound": "Cc1ccc(-n2cc3ccc([N+](=O)[O-])cc3n2)cc1", "Potency": "inconclusive: 11.6 µM [activator, partial curve]"}
{"compound": "Cc1cccc(N2CCN(C(=O)c3ccncc3)CC2)c1C", "Potency": "inactive"}
{"compound": "CNc1ccc2c3c(cccc13)C(=O)N(C)C2=O", "Potency": "inconclusive: 11.6 µM [falling, partial curve]"}
{"compound": "N/C(=N\\OC(=O)N1CCOCC1)c1ccc(Br)cc1", "Potency": "inconclusive: 20.6 µM [falling, partial curve]"}
{"compound": "C/C(=N\\NC(=O)CSCc1ccc(Cl)cc1)c1ccc(NC(=O)c2ccccc2)cc1", "Potency": "inconclusive: 16.4 µM [activator, partial curve, poor fit]"}
{"compound": "Cc1ccc2oc(C(=O)N(C)Cc3ccon3)c(C)c2c1", "Potency": "inconclusive: 4.61 µM [activator, full curve]"}
{"compound": "O=C(COCc1cc(-c2ccco2)on1)Nc1cccc(O)c1", "Potency": "inconclusive: 25.9 µM [activator, partial curve, poor fit]"}
{"compound": "COc1ccccc1Oc1cc(C#N)c(C#N)cc1-n1nnc2ccccc21", "Potency": "inconclusive: 20.6 µM [falling, single point]"}
{"compound": "COc1ccc(CN(C(=O)Cc2cccs2)C(C(=O)NC2CCCC2)c2ccncc2)cc1", "note": "(stereo not given)", "Potency": "inconclusive: 0.82 µM [activator, full curve, poor fit]"}
{"compound": "c1ccc(CSC2=NNC(c3ccccn3)S2)cc1", "note": "(stereo not given)", "Potency": "inconclusive: 20.6 µM [falling, single point]"}
{"compound": "COc1ccc(S(=O)(=O)N2CCC(c3nc4ccccc4s3)CC2)cc1OC", "Potency": "inactive"}
{"compound": "Cc1ccc(S(=O)(=O)NCc2ccc(C(=O)N3CCN(c4ccccc4)CC3)cc2)cc1", "Potency": "active: 23.1 µM"}
{"compound": "CC(C)Cc1ccc(/C=C/C(=O)N2CCOCC2)cc1", "Potency": "inconclusive: 9.2 µM [activator, partial curve]"}
{"compound": "CCOc1ccc(N2CC(C(=O)NCCc3c[nH]c4ccc(C)cc34)CC2=O)cc1", "note": "(stereo not given)", "Potency": "inconclusive: 29.1 µM [falling, single point]"}
{"compound": "Cc1ccc(N=c2oc3cc(O)ccc3cc2C(N)=O)cc1", "Potency": "active: 20.6 µM"}
{"compound": "Nc1nc(-c2ccc3ccccc3c2)cs1", "Potency": "inconclusive: 18.4 µM [activator, partial curve]"}
{"compound": "c1ccc2[nH]c(-c3nc4ccccc4[nH]3)nc2c1", "Potency": "inconclusive: 2.31 µM [activator, partial curve]"}
{"compound": "Cc1cccc(C(=O)N(C(=O)c2cccc(C)c2)N(C)C)c1", "Potency": "inactive"}
{"compound": "Cc1ccnc(SCc2cc(=O)c(OC(=O)c3ccc(S(=O)(=O)N(C)C)cc3)co2)n1", "Potency": "inactive"}
{"compound": "CCCNC(=O)c1ccc2c(c1)N=C(CCC)c1ccccc1S2", "Potency": "inactive"}
{"compound": "COc1cccc(NC(=O)Cn2nc(N3CCN(c4ccccc4)CC3)ccc2=O)c1", "Potency": "inactive"}
{"compound": "COc1ccc(-c2nn(-c3ccccc3)cc2C(=O)N(C)CC(=O)Nc2cccc(F)c2)cc1", "Potency": "inactive"}
{"compound": "Cc1cccc(CSc2cn(CC(=O)N3CCOCC3)c3ccccc23)c1", "Potency": "inconclusive: 16.4 µM [activator, partial curve] and inconclusive: 13 µM [activator, partial curve]"}
{"compound": "O=C(COc1coc(CN2CCc3ccccc3C2)cc1=O)Nc1ccc(F)cc1", "Potency": "inconclusive: 2.06 µM [activator, partial curve, poor fit]"}
{"compound": "Cc1nn(Cc2ccccc2)c(Cl)c1C(=O)NCCc1ccccc1", "Potency": "inconclusive: 1.64 µM [activator, partial curve]"}
{"compound": "Cc1c(C(=O)N/N=C/c2ccccc2)[nH]c2c([N+](=O)[O-])cccc12", "Potency": "inactive"}
{"compound": "CCN(CC)c1nc(C)nc2c1cnn2CCc1ccccc1", "Potency": "inconclusive: 1.16 µM [activator, full curve, poor fit]"}
{"compound": "O=C(CCSc1ccc(Cl)cc1)NCc1ccccn1", "Potency": "inconclusive: 23.1 µM [activator, single point]"}
{"compound": "COc1ccc(C2/C=C\\CN(Cc3ccncc3)CC(=O)N2Cc2ccc(F)cc2)cc1", "note": "(stereo not given)", "Potency": "inactive"}
{"compound": "CCN1CCN(C(=S)c2ccc(-c3ccccc3)cc2)CC1", "Potency": "active: 5.17 µM"}
{"compound": "CCOC(=O)c1c(-c2ccccc2)csc1NC(=O)CCN1CCOCC1", "Potency": "inactive"}
{"compound": "CC1=NN(C(N)=S)C(=O)C1N=Nc1ccc(F)cc1", "note": "(stereo not given)", "Potency": "inconclusive: 4.61 µM [activator, partial curve]"}
{"compound": "Cc1cc2ccccn2c1C(=O)Nc1cccc(Cl)c1", "Potency": "inconclusive: 29.1 µM [activator, single point]"}
{"compound": "Clc1ccc(C2=Nn3c(nnc3-c3n[nH]c4c3CCC4)SC2)cc1Cl", "Potency": "inconclusive: 18.4 µM [falling, single point]"}
{"compound": "COC(=O)C1CCN(C(=O)COC(=O)c2n[nH]c3ccccc23)CC1", "Potency": "inactive"}
{"compound": "Cc1ccc(Nc2c(-c3ccccn3)nc3ccc(Br)cn23)cc1", "activity change, negative = inhibition": "inactive: 4% [at 9.27 µM]"}
{"compound": "O=C(Nc1ccc2c(c1)CCC2)Nc1ccccc1Cl", "Potency": "inconclusive: 2.91 µM [activator, full curve, poor fit]"}
{"compound": "CCOC(=O)C1CCCN(C(=O)c2ccc(CS(=O)(=O)c3ccc(C)cc3)o2)C1", "note": "(stereo not given)", "Potency": "inactive"}
{"compound": "Cc1noc(NC(=O)c2ccc(Cl)c(Cl)c2)c1Cl", "Potency": "inconclusive: 29.1 µM [falling, single point]"}
{"compound": "COc1ccc(C(=O)NCC(c2cccnc2)N2CCN(c3ccccc3)CC2)cc1OC", "note": "(stereo not given)", "Potency": "inconclusive: 2.06 µM [falling, partial curve]"}
{"compound": "CCOc1ccc(NC(=O)CN(C)C(=O)/C=C/c2ccc(S(=O)(=O)N3CCCCCC3)cc2)cc1OCC", "Potency": "inconclusive: 9.2 µM [falling, partial curve]"}
{"compound": "CC(C)(C)NCC(O)COc1cccc2c1C[C@H](O)[C@H](O)C2", "note": "(stereo not given in full)", "Potency": "inactive"}
{"compound": "Cc1ccc2ccc3cc(C(=O)N4CCN(c5ccccc5F)CC4)nc3c2[nH]1", "Potency": "inconclusive: 1.64 µM [activator, partial curve, poor fit]"}
